# Data: the supplement of paper PMC8728848
# Some of the results follow.
# Columns and labels:
# Assay in all cases: glycan array binding signal (z-score within array); higher = stronger binding
# Conditions in all cases: glycan notation: IUPAC condensed, linker removed
# Gal(a1-3)Gal(b1-3)GlcNAc = target: Gal(a1-3)Gal(b1-3)GlcNAc
# How it was run: (§1)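 Negative Z-scores can be read as non-binding. The Z-score is calculated within each array and then averaged across arrays of one protein sequence at different concentrations or buffers and across linkers. Arrays, 3228 in all, were curated from the Consortium for Functional Glycomics database and kept only where the protein sequence was available.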
# [1] = target: Gal(a1-3)Gal(b1-3)GlcNAc(b1-2)Man
# How it was run: as §1
# [2] = target: Gal(a1-3)Gal(b1-3)GlcNAc(b1-2)Man(a1-3)[Gal(a1-3)Gal(b1-3)GlcNAc(b1-2)Man(a1-6)]Man(b1-4)GlcNAc(b1-4)GlcNAc
# How it was run: as §1
# [3] = target: Gal(a1-3)Gal(b1-3)GlcNAc(b1-3)GalNAc
# How it was run: as §1
# [4] = target: Gal(a1-3)Gal(b1-3)GlcNAc(b1-6)GalNAc
# How it was run: as §1
# [5] = target: Gal(a1-3)Gal(b1-3)[Fuc(a1-4)]GlcNAc(b1-2)Man(a1-3)[Gal(a1-3)Gal(b1-3)[Fuc(a1-4)]GlcNAc(b1-2)Man(a1-6)]Man(b1-4)GlcNAc(b1-4)GlcNAc
# How it was run: as §1
# Gal(a1-3)Gal(b1-4)Glc = target: Gal(a1-3)Gal(b1-4)Glc
# How it was run: as §1
# Gal(a1-3)Gal(b1-4)GlcNAc = target: Gal(a1-3)Gal(b1-4)GlcNAc
# How it was run: as §1
# [6] = target: Gal(a1-3)Gal(b1-4)GlcNAc(b1-2)Man
# How it was run: as §1
# [7] = target: Gal(a1-3)Gal(b1-4)GlcNAc(b1-2)Man(a1-3)[Gal(a1-3)Gal(b1-4)GlcNAc(b1-2)Man(a1-6)]Man(b1-4)GlcNAc(b1-4)GlcNAc
# How it was run: as §1
# [8] = target: Gal(a1-3)Gal(b1-4)GlcNAc(b1-3)GalNAc
# How it was run: as §1
# [9] = target: Gal(a1-3)Gal(b1-4)GlcNAc(b1-6)GalNAc
# How it was run: as §1
# [10] = target: Gal(a1-3)Gal(b1-4)[Fuc(a1-3)]GlcNAc
# How it was run: as §1
# [11] = target: Gal(a1-3)Gal(b1-4)[Fuc(a1-3)]GlcNAc(b1-2)Man(a1-3)[Gal(a1-3)Gal(b1-4)[Fuc(a1-3)]GlcNAc(b1-2)Man(a1-6)]Man(b1-4)GlcNAc(b1-4)GlcNAc
# How it was run: as §1
# Gal(a1-3)GalNAc = target: Gal(a1-3)GalNAc
# How it was run: as §1
# [12] = target: Gal(a1-3)[Gal(a1-4)]Gal(b1-4)GlcNAc
# How it was run: as §1
# [13] = target: Gal(a1-4)Gal(b1-3)GlcNAc(b1-2)Man(a1-3)[Gal(a1-4)Gal(b1-3)GlcNAc(b1-2)Man(a1-6)]Man(b1-4)GlcNAc(b1-4)GlcNAc
# How it was run: as §1
# Gal(a1-4)Gal(b1-4)Glc = target: Gal(a1-4)Gal(b1-4)Glc
# How it was run: as §1
# Gal(a1-4)Gal(b1-4)GlcNAc = target: Gal(a1-4)Gal(b1-4)GlcNAc
# How it was run: as §1
# [14] = target: Gal(a1-4)Gal(b1-4)GlcNAc(b1-2)Man(a1-3)[Gal(a1-4)Gal(b1-4)GlcNAc(b1-2)Man(a1-6)]Man(b1-4)GlcNAc(b1-4)GlcNAc
# How it was run: as §1
# [15] = target: Gal(a1-4)Gal(b1-4)GlcNAc(b1-3)Gal(b1-4)Glc
# How it was run: as §1
# Gal(a1-4)GlcNAc = target: Gal(a1-4)GlcNAc
# How it was run: as §1
# Gal(a1-6)Glc = target: Gal(a1-6)Glc
# How it was run: as §1
# Gal(b1-2)Gal = target: Gal(b1-2)Gal
# How it was run: as §1
# Gal(b1-3)Gal = target: Gal(b1-3)Gal
# How it was run: as §1
# Gal(b1-3)Gal(b1-4)GlcNAc = target: Gal(b1-3)Gal(b1-4)GlcNAc
# How it was run: as §1
# Gal(b1-3)GalNAc = target: Gal(b1-3)GalNAc
# How it was run: as §1
# [16] = target: Gal(b1-3)GalNAc(a1-3)[Fuc(a1-2)]Gal(b1-4)Glc
# How it was run: as §1
# [17] = target: Gal(b1-3)GalNAc(a1-3)[Fuc(a1-2)]Gal(b1-4)GlcNAc
# How it was run: as §1
# Gal(b1-3)GalNAc(b1-3)Gal = target: Gal(b1-3)GalNAc(b1-3)Gal
# How it was run: as §1
# [18] = target: Gal(b1-3)GalNAc(b1-3)Gal(a1-4)Gal(b1-4)Glc
# How it was run: as §1
# [19] = target: Gal(b1-3)GalNAc(b1-4)Gal(b1-4)Glc
# How it was run: as §1
# [20] = target: Gal(b1-3)GalNAc(b1-4)[Neu5Ac(a2-3)]Gal(b1-4)Glc
# How it was run: as §1
# Gal(b1-3)GlcNAc = target: Gal(b1-3)GlcNAc
# How it was run: as §1
# [21] = target: Gal(b1-3)GlcNAc(a1-3)Gal(b1-4)GlcNAc
# How it was run: as §1
# [22] = target: Gal(b1-3)GlcNAc(a1-6)Gal(b1-4)GlcNAc
# How it was run: as §1
# Gal(b1-3)GlcNAc(b1-2)Man = target: Gal(b1-3)GlcNAc(b1-2)Man
# How it was run: as §1
# [23] = target: Gal(b1-3)GlcNAc(b1-2)Man(a1-3)[Gal(b1-3)GlcNAc(b1-2)Man(a1-6)]Man(b1-4)GlcNAc(b1-4)GlcNAc
# How it was run: as §1
binder,measurement,setting,value
his-Lectin-24A (Drosophila melanogaster) (protein) MFRLSVLVLNLLLVSHEFSAGTAKIEIQPLPALCNGYCFPTLKPVMEYVAIHQDKWNTCTEILANEARKDQIQLNIQLDALKADVSNIKASQLSKDEKLDRMEREQFAMHESLETINRYLTVKLDRTKLQLEAIKNTMDYMKAQMDGYFSAINGVQCLQPGFEKIGDRYFYIEEDVELNWLDAQAKCRRMGGHLASIKTKQEFDAIVEKLDDSKSYFLGVNENTKTGDFVSAASGKSCLYHEWGPGEPHHNNDQERCVSILRKLMHVGNCTYEKRFICQYGI,glycan array binding signal (z-score),Gal(a1-3)Gal(b1-3)GlcNAc,1.41
same,glycan array binding signal (z-score),[1],-0.142
same,glycan array binding signal (z-score),[2],2.35
same,glycan array binding signal (z-score),[3],-0.318
same,glycan array binding signal (z-score),[4],-0.445
same,glycan array binding signal (z-score),[5],1.32
same,glycan array binding signal (z-score),Gal(a1-3)Gal(b1-4)Glc,1.01
same,glycan array binding signal (z-score),Gal(a1-3)Gal(b1-4)GlcNAc,0.285
same,glycan array binding signal (z-score),[6],1.07
same,glycan array binding signal (z-score),[7],1.53
same,glycan array binding signal (z-score),[8],-0.324
same,glycan array binding signal (z-score),[9],0.032
same,glycan array binding signal (z-score),[10],0.409
same,glycan array binding signal (z-score),[11],0.204
same,glycan array binding signal (z-score),Gal(a1-3)GalNAc,-0.384
same,glycan array binding signal (z-score),[12],-1.64
same,glycan array binding signal (z-score),[13],-0.397
same,glycan array binding signal (z-score),Gal(a1-4)Gal(b1-4)Glc,-1.41
same,glycan array binding signal (z-score),Gal(a1-4)Gal(b1-4)GlcNAc,0.734
same,glycan array binding signal (z-score),[14],1.02
same,glycan array binding signal (z-score),[15],-0.369
same,glycan array binding signal (z-score),Gal(a1-4)GlcNAc,-0.665
same,glycan array binding signal (z-score),Gal(a1-6)Glc,-1.35
same,glycan array binding signal (z-score),Gal(b1-2)Gal,0.287
same,glycan array binding signal (z-score),Gal(b1-3)Gal,-1.59
same,glycan array binding signal (z-score),Gal(b1-3)Gal(b1-4)GlcNAc,-0.367
same,glycan array binding signal (z-score),Gal(b1-3)GalNAc,0.106
same,glycan array binding signal (z-score),[16],-0.33
same,glycan array binding signal (z-score),[17],0.9
same,glycan array binding signal (z-score),Gal(b1-3)GalNAc(b1-3)Gal,0.185
same,glycan array binding signal (z-score),[18],0.442
same,glycan array binding signal (z-score),[19],1.01
same,glycan array binding signal (z-score),[20],-1.42
same,glycan array binding signal (z-score),Gal(b1-3)GlcNAc,-0.582
same,glycan array binding signal (z-score),[21],1.65
same,glycan array binding signal (z-score),[22],0.873
same,glycan array binding signal (z-score),Gal(b1-3)GlcNAc(b1-2)Man,0.383
same,glycan array binding signal (z-score),[23],1.74

# In another format: results already given
binder	measurement	setting	value
his-Lectin-24A (Drosophila melanogaster) (protein) MFRLSVLVLNLLLVSHEFSAGTAKIEIQPLPALCNGYCFPTLKPVMEYVAIHQDKWNTCTEILANEARKDQIQLNIQLDALKADVSNIKASQLSKDEKLDRMEREQFAMHESLETINRYLTVKLDRTKLQLEAIKNTMDYMKAQMDGYFSAINGVQCLQPGFEKIGDRYFYIEEDVELNWLDAQAKCRRMGGHLASIKTKQEFDAIVEKLDDSKSYFLGVNENTKTGDFVSAASGKSCLYHEWGPGEPHHNNDQERCVSILRKLMHVGNCTYEKRFICQYGI	glycan array binding signal (z-score)	[4]	-0.445
same	glycan array binding signal (z-score)	[7]	1.53
same	glycan array binding signal (z-score)	[8]	-0.324
same	glycan array binding signal (z-score)	Gal(a1-3)GalNAc	-0.384
same	glycan array binding signal (z-score)	[14]	1.02
same	glycan array binding signal (z-score)	Gal(b1-2)Gal	0.287
same	glycan array binding signal (z-score)	Gal(b1-3)Gal(b1-4)GlcNAc	-0.367
same	glycan array binding signal (z-score)	Gal(b1-3)GalNAc	0.106
